Reference: paper PMC4473678, “Swedish mutant APP-based BACE1 binding site peptide reduces APP β-cleavage and cerebral Aβ levels in Alzheimer’s mice” (Scientific Reports, 2015)

System: BACE1, ADAM10 and ADAM17
Experiment: WB of secretase expression in brain homogenates, 5XFAD mice
Format: in vivo, mouse
Conditions: 8 weeks, TAT-APPsweBBP, TAT and PBS groups compared

Which results are given for “YGRKKRRQRRREISEVNLDAEFR [APPsweBBP conjugated with the membrane fusion fragment of HIV-1 Tat protein]”?
ADAM10 expression in brain homogenates: not significantly different; also recorded: comparable expression levels; ADAM17 expression in brain homogenates: not significantly different; also recorded: comparable expression levels; BACE1 expression in brain homogenates: not significantly different; also recorded: comparable expression levels

Entries after “also recorded” stand apart in the source; their conditions may differ.
